The full ranking holds about 33,000 sequences; the median of “E-score (-0.5 to 0.5)” is about -8e-05, and the highest 2% start at about 0.23. Some of the results follow.
What follows are sequences tested against T1, Nrg2 (UniProt P38082) (assay: PBM E-score (8-mer binding enrichment) (E-score (-0.5 to 0.5)); higher = stronger / more preferred TF binding). Settings: protein concentration: 100 nM; construct: GST-full length.
T1 sequence: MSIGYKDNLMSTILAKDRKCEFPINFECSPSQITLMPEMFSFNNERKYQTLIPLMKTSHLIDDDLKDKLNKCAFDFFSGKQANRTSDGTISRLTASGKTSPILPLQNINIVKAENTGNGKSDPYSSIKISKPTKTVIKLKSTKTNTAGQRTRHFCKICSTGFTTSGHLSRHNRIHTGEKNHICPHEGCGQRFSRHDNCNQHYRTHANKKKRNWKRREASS
In short: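 The E-score, a modified Wilcoxon-Mann-Whitney statistic, was computed by the Universal PBM Analysis Suite for every ungapped eight-base word pooled with its reverse complement. Scans behind it were normalised with masliner after bound GST-tagged yeast transcription factors were detected with fluorescent anti-GST. The proteins, at about 100-200 nM, had been applied to universal all-10-mer Agilent arrays made double-stranded by primer extension.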

Point of comparison: CGACATAG, “PBM E-score” value 0.0485. Against it:
- AACCTGCA — higher, 0.154
- AACGGGCG — lower, 0.0331
- AATACATA — lower, 0.0257
- GGTTACAA — lower, -0.0351
- AAAGCACA — lower, 0.0449
- GGGTTTAC — lower, -0.0342
- TATAAATA — higher, 0.255
- ATACCTAA — higher, 0.222
- ATACGCCG — lower, -0.148
- AGCGAGTA — higher, 0.144
- GGATGGCC — lower, -0.31
- AGTGCCAA — lower, -0.14
- ACTGGCAC — lower, -0.052
- GATCTCAA — higher, 0.115
- CTGAGACC — lower, -0.124
- AGAGCGAA — higher, 0.062
- GAGGGGTA — lower, -0.0925
- GCTCATGA — higher, 0.055
- CATTAGAC — lower, -0.252
- CGGCTACC — higher, 0.127
- AATGCGTC — higher, 0.0563
- CAGAGATA — higher, 0.106
- ACGGGAAG — lower, -0.186
- GTTCCTTA — lower, -0.0398
- CAGAGTAA — lower, -0.0973
- AGAGCCTC — lower, -0.224
- CTGGCTCC — lower, -0.242
- TCATCGCA — lower, -0.131
- ACTAGCCC — lower, -0.047
- AGCACGTG — lower, 0.00832
- AGGGAGTG — lower, -0.088
- AATAGTGA — higher, 0.0651
- AGAGGCAG — higher, 0.0519
- CCTCATAG — higher, 0.059
- AACTGTAT — higher, 0.0876
- GCTAGTAC — lower, -0.114
- CCAGGAAG — lower, -0.164
- TATCCTCA — lower, 0.0265
- AGGCAACT — higher, 0.0578
- AACGAAAT — higher, 0.251
- AAGGGACC — higher, 0.424
- ACGGTAAG — lower, -0.164
- GCGGGTAC — lower, 0.0243
- ACAACACA — higher, 0.0869
- CAACCGAA — higher, 0.171
- AGAATGGC — lower, 0.0093
- ACAGCCAT — higher, 0.0709
- AATGGGGG — lower, -0.337
- AGTTCGAT — lower, 0.0318
- AACTCCGT — higher, 0.0651
- AAGAAAGC — lower, 0.0284
- GTAGGTGA — lower, -0.167
- CGTAAGCC — lower, -0.237
- TCAGATGA — higher, 0.148
- AGTAATAG — higher, 0.247
- AGGGGCCA — higher, 0.0682
- CTCGACTA — lower, -0.118
- CGATGGCC — lower, -0.0342
- CAGGGCAC — higher, 0.215
- GCAGTACC — lower, -0.0693
- TACACGGA — higher, 0.136
- GCCACAGC — lower, -0.0308
- ATCTGTAG — lower, -0.16
- AAGCGACG — lower, -0.0894
- AACTCAAA — higher, 0.109
- TATCTAAA — higher, 0.0773
- AGATTGTA — lower, 0.0256
- AAAAAGCC — higher, 0.14
- ATGGGGAG — lower, 0.0173
- GGTTTCGA — higher, 0.191
- CCGGTAAG — lower, -0.0351
- TAACGCGA — higher, 0.0726
- GCGCTCTA — higher, 0.0746
- GATCGCGA — higher, 0.168
- TGACGAAA — higher, 0.109
- TACGGAGA — lower, -0.0934
- CTGTACAA — lower, -0.0574
- TAGAAGAA — lower, -0.122
- CGCCATAC — lower, -0.017
- CCGAAGTA — lower, -0.0036
- AGTTTTAT — higher, 0.0628
- CAAATAAC — higher, 0.181
- AATCAACT — higher, 0.171
- ACATCGCC — lower, 0.00877
- CGTTCTTA — higher, 0.0871
- CAATGCCA — lower, 0.0462
- AACCATTC — lower, -0.082
- TGGCATAA — higher, 0.144
- GGGGCGAC — lower, -0.0474
- TCCTGCAA — lower, 0.00879
- CGTACGCA — lower, -0.0382
- CTGGAGAC — lower, -0.0117
- TGACTGCA — lower, -0.232
- AAAGGACG — lower, 0.0463
- AAAAATTG — lower, -0.095
- TGCATCAA — higher, 0.145
- GGCGCATA — higher, 0.132
- ATATAAAG — higher, 0.0638
- CTCTGAAG — lower, -0.126
- CATGAGAC — lower, -0.0251
- ACTGCCTC — higher, 0.0654
- CAAGACCG — lower, -0.00525
- AACCGTCT — lower, -0.152
- TGGCCTAA — lower, -0.0413
- ATCATCCA — higher, 0.0993
- AAAACGTC — higher, 0.0498
- CACATCGC — lower, -0.125
- TATGTACA — lower, 0.0429
- GTCAAAAC — the same, 0.0485
- GATAGTAA — higher, 0.0722
- AGGCCCGC — lower, -0.00315
- AAAGCCAC — higher, 0.145
- CCCACTAG — lower, -0.198
- GTGAGCTA — higher, 0.061
- AGTAAAAT — lower, -0.0226
- ATTGGAAA — lower, -0.0614
- AACCACAC — higher, 0.125
- TATCAATA — lower, 0.0257
- CAATGCAA — higher, 0.118
- GTACCTTA — lower, -0.00526
- GCCTAACA — lower, 0.0317
- CTGACAGA — higher, 0.18
- CGGAGACC — lower, 0.0242
- CTATTAAG — lower, -0.0659
- TCACGGAA — lower, 0.00343
- AGCCGCCA — lower, -0.336
- CGGGCTCA — lower, -0.178
- AAGCATCC — lower, -0.123
- GACGACAA — higher, 0.221
- AAACGCTA — lower, -0.198
- GTGTTACA — lower, -0.112
- AGGCGATA — lower, 0.0241
- GCCGTAGC — lower, -0.0864
- CGTCAGAG — lower, -0.0277
- ATGTCCCG — lower, -0.0705
- CACTGGCG — lower, 0.0007
- GGGCCTAC — lower, -0.255
- CCTACAAA — lower, 0.043
- GCACCACC — lower, -0.049
- CGGTGAGA — higher, 0.0581
- AGACCCGG — lower, 0.0347
- ACCCGAGA — lower, 0.0345
- ACTGTGCT — lower, -0.00417
- CAATACAC — higher, 0.0544
- ACTGACTA — lower, -0.0179
- AAGCCGAA — lower, 0.0142
- GTTTAATA — higher, 0.198
- ACCTCTAT — lower, -0.0653
- CGCCGCCA — lower, -0.0777
- CCGTACCC — lower, 0.0218
- AAAACCTA — higher, 0.0556
- AAGTAAAA — lower, -0.131
- AATCCAAG — higher, 0.0978
- TACCTATA — lower, -0.0107
- TCCGGACA — higher, 0.0815
- GCTCGTAA — lower, -0.0103
- ACTCGGCA — higher, 0.154
- GCCACTAA — lower, -0.0939
- GCACACAA — higher, 0.0547
- AAGTGTCA — lower, -0.186
- AGGGAGAT — lower, -0.0858
- AAGTGAAC — lower, -0.0513
- CAAATGTG — higher, 0.166
- ACAAAAGC — higher, 0.0641
- GTGCTCCA — lower, -0.0717
- ATGATACC — higher, 0.154
- AACGCTGC — lower, 0.0121
- GCCCACGA — lower, -0.0518
- AATACCCG — higher, 0.0698
- ATCTTCGA — higher, 0.0799
- CTGGCAAA — higher, 0.137

Reference: the supplement of paper PMC3334620
